Data reported in paper doi:10.1101/2022.09.15.508097.

Amino acid sequences for entries named in this document (tags omitted). A change or cut given only in a name is not applied to a line headed by its entry.
UniProt Q6AHZ1: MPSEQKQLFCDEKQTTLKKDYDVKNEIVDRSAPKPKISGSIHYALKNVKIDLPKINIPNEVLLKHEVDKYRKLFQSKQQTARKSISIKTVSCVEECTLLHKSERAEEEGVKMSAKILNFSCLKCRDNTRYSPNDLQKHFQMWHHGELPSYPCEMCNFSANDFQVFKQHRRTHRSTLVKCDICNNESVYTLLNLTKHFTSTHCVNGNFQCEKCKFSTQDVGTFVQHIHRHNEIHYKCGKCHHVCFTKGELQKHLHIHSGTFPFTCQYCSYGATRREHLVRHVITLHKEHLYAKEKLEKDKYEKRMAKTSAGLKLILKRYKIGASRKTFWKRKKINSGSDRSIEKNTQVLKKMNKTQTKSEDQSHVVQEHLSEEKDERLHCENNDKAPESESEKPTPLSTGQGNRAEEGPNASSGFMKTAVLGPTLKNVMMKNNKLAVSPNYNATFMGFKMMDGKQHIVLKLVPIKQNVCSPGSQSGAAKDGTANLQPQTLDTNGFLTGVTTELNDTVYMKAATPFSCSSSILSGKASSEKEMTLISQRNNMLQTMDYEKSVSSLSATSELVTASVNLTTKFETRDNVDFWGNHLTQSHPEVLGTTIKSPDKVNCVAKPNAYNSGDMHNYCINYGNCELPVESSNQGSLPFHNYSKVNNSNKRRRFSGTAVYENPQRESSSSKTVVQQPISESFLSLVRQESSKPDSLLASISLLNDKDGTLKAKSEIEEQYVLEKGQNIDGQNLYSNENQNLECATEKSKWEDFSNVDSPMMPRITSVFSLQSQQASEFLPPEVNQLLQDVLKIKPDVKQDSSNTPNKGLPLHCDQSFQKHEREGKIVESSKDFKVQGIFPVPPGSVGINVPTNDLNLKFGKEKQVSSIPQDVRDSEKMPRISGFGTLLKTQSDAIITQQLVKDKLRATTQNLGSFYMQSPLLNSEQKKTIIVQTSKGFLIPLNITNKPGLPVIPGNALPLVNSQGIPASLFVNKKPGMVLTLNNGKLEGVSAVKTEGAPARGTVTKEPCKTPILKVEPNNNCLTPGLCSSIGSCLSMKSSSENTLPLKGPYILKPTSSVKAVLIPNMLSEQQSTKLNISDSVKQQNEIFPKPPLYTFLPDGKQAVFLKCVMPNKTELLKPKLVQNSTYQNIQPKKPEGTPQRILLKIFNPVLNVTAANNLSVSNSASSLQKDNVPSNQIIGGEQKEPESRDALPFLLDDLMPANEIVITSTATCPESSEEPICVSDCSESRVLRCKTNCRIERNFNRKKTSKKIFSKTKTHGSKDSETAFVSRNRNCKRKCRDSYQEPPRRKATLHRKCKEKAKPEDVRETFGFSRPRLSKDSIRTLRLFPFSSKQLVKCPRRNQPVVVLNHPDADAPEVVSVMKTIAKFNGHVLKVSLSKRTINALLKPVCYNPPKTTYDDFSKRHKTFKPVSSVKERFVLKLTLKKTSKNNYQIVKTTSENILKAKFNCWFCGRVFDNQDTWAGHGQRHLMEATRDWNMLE
UniProt Q9C0D4: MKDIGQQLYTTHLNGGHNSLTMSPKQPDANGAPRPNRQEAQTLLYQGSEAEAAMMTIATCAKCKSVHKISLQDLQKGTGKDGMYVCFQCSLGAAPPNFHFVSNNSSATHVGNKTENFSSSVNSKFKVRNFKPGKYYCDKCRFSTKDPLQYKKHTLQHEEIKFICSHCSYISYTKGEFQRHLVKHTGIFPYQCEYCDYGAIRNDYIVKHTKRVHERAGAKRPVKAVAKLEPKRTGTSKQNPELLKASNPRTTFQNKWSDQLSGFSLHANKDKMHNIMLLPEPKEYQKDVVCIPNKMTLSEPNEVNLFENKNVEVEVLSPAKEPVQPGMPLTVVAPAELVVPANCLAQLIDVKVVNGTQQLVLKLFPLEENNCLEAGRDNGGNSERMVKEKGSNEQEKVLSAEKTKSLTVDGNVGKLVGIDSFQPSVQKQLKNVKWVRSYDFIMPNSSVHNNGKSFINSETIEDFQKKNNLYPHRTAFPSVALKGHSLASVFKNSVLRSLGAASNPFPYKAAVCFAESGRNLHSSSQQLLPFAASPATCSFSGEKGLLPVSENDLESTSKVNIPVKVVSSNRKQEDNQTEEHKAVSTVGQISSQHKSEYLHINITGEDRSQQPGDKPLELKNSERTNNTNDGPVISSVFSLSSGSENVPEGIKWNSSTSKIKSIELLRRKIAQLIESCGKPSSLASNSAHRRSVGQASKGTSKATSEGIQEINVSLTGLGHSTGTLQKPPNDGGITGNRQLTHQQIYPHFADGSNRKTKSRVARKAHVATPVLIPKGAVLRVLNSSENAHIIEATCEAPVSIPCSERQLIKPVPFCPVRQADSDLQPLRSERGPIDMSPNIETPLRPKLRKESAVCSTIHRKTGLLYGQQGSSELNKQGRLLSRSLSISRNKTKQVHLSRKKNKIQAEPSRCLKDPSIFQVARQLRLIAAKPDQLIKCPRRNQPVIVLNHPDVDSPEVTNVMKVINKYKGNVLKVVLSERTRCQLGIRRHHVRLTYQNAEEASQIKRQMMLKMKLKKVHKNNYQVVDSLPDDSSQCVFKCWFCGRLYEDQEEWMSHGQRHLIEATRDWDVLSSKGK
UniProt Q96KQ7: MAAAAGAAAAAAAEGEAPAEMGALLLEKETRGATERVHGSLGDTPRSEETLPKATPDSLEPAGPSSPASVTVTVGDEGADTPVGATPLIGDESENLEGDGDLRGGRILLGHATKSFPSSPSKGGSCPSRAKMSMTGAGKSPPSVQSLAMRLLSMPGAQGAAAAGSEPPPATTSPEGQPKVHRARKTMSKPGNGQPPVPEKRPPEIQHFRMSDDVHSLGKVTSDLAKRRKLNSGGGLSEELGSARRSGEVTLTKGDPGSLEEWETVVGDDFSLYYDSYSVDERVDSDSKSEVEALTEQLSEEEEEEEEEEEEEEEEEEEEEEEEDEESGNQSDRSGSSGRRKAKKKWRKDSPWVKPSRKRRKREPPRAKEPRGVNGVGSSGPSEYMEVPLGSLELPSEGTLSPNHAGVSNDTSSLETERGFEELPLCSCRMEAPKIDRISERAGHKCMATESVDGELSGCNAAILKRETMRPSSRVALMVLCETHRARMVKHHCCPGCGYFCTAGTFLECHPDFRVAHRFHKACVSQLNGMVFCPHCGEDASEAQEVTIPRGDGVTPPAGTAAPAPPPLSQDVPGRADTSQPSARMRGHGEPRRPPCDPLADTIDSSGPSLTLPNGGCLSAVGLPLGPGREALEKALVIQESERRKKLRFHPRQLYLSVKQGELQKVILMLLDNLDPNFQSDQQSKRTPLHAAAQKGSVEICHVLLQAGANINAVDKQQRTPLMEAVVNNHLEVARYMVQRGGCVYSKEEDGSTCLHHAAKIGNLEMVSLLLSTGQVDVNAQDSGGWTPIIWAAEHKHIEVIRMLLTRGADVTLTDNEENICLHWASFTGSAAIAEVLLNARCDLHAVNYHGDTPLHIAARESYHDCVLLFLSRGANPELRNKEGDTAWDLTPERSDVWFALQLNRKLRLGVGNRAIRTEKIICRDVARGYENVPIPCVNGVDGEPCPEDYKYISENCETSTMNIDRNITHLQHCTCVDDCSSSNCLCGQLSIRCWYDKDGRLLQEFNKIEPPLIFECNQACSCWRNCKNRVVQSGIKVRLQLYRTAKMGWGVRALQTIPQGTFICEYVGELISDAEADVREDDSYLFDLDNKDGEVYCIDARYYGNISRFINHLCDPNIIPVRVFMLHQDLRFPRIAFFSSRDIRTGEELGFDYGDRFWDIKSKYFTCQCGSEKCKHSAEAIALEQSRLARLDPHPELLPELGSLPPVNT

How the values were obtained:
Assay in all cases: fluorescence microscopy-based interaction-trap
[1] = biological target: TetR-EYFP-ZNF518A^1317–1483 KSS (human) (UniProt Q6AHZ1)
[2] = biological target: TetR-EYFP-ZNF518A^971–1483 KSS (human) (UniProt Q6AHZ1)
[3] = biological target: TetR-EYFP-ZNF518A^KSS (human) (UniProt Q6AHZ1)
[4] = biological target: TetR-EYFP-ZNF518B^KSS/C (human) (UniProt Q9C0D4)
[5] = biological target: TetR-EYFP-ZNF518B^KSS/NC (human) (UniProt Q9C0D4)

Measured: binding

Halo-G9a (from UniProt Q96KQ7 1-1210) (enzyme)
binds: all assays above

No constants are given. Whether binding was seen depends on the method and setting. Binding calls can cover weak binding; strength is not graded here.
